Results published in patent publication US20240293499A1.
No constants are given. Whether binding was seen depends on the method and setting. Some binding calls cover weakened binding; strength is not graded here.

Columns and labels:
[1] = molecular target: T1, murine VISTA on mouse splenocytes (macrophages, neutrophils, CD4+ T cells) (mouse) (UniProt Q9D659); assay: flow cytometry on mouse splenocytes, ΔMFI against isotype control, 3 mice
T1 sequence (looked up): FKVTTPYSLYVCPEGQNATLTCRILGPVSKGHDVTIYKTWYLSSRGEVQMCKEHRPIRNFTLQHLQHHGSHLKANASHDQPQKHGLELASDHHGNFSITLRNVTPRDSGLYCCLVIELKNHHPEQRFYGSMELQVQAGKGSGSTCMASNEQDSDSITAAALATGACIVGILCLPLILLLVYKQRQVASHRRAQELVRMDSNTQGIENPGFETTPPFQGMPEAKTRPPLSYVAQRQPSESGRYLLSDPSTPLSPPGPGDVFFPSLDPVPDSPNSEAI

[2] = molecular target: T1, murine VISTA on mouse splenocytes (macrophages, neutrophils, CD4+ T cells) (mouse); assay: flow cytometry on mouse splenocytes (FIG. 3B)
[3] = molecular target: T2, murine VISTA (mVISTA), recombinant; form not stated (mouse) (UniProt Q9D659); assay: ELISA screening of hybridomas
T2 sequence (looked up): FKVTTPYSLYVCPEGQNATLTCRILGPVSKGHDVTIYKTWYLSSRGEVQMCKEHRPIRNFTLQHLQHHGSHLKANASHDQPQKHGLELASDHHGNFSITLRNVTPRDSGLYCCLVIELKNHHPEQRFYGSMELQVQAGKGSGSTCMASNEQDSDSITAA

[4] = molecular target: T3, human VISTA (hVISTA), as used in the hybridoma screening; form not stated (human) (UniProt Q9H7M9); assay: ELISA screening of hybridomas
T3 sequence (looked up): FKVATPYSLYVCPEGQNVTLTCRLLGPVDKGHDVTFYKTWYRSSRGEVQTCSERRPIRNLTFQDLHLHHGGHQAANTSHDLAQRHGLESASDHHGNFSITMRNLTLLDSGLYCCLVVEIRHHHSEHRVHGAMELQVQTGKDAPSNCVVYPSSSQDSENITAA

Measured: binding

B1: rat anti-hmVISTA mAb 7C7 (antibody, V domains shown)
VH: EVQLVESGGGLVQPGRSLKLSCVASGFTFNKYWMSWTRQAPGKGLEWVASITNSGGNTYYPDSVKGRFTISRDNAQNTLYLQMNSLRSEDTATYYCTLGVDYWGQGAMVTVSS
VL: DVVMTQTPPSLSVTIGQSVSISCKSSQSLVYSDGKTYLHWLLQSSGRSPKRLIYQVSNLASGVPDRFSGTGSQKDFTLKISRVEAKDLGVYYCAQTTHFPYTFGAGTKLEMK
binds: [1] | [2] | [3] | [4]
